Assay results from US20250283871A1, “COMPOSITIONS AND METHODS FOR MODULATING THE INTERACTION BETWEEN SS18-SSX FUSION ONCOPROTEIN AND NUCLEOSOMES” (Dana-Farber Cancer Institute, Inc., priority 2020, published 2025).

B1: GTPBP10 (protein, UniProt A4D1E9 1-387, looked up)
GTP-binding protein 10: MVHCSCVLFRKYGNFIDKLRLFTRGGSGGMGYPRLGGEGGKGGDVWVVAQNRMTLKQLKDRYPRKRFVAGVGANSKISALKGSKGKDCEIPVPVGISVTDENGKIIGELNKENDRILVAQGGLGGKLLTNFLPLKGQKRIIHLDLKLIADVGLVGFPNAGKSSLLSCVSHAKPAIADYAFTTLKPELGKIMYSDFKQISVADLPGLIEGAHMNKGMGHKFLKHIERTRQLLFVVDISGFQLSSHTQYRTAFETIILLTKELELYKEELQTKPALLAVNKMDLPDAQDKFHELMSQLQNPKDFLHLFEKNMIPERTVEFQHIIPISAVTGEGIEELKNCIRKSLDEQANQENDALHKKQLLNLWISDTMSSTEPPSKHAVTTSKMDII
B2: PFKL (protein, UniProt P17858 2-780, looked up)
ATP-dependent …: AAVDLEKLRASGAGKAIGVLTSGGDAQGMNAAVRAVTRMGIYVGAKVFLIYEGYEGLVEGGENIKQANWLSVSNIIQLGGTIIGSARCKAFTTREGRRAAAYNLVQHGITNLCVIGGDGSLTGANIFRSEWGSLLEELVAEGKISETTARTYSHLNIAGLVGSIDNDFCGTDMTIGTDSALHRIMEVIDAITTTAQSHQRTFVLEVMGRHCGYLALVSALASGADWLFIPEAPPEDGWENFMCERLGETRSRGSRLNIIIIAEGAIDRNGKPISSSYVKDLVVQRLGFDTRVTVLGHVQRGGTPSAFDRILSSKMGMEAVMALLEATPDTPACVVTLSGNQSVRLPLMECVQMTKEVQKAMDDKRFDEATQLRGGSFENNWNIYKLLAHQKPPKEKSNFSLAILNVGAPAAGMNAAVRSAVRTGISHGHTVYVVHDGFEGLAKGQVQEVGWHDVAGWLGRGGSMLGTKRTLPKGQLESIVENIRIYGIHALLVVGGFEAYEGVLQLVEARGRYEELCIVMCVIPATISNNVPGTDFSLGSDTAVNAAMESCDRIKQSASGTKRRVFIVETMGGYCGYLATVTGIAVGADAAYVFEDPFNIHDLKVNVEHMTEKMKTDIQRGLVLRNEKCHDYYTTEFLYNLYSSEGKGVFDCRTNVLGHLQQGGAPTPFDRNYGTKLGVKAMLWLSEKLREVYRKGRVFANAPDSACVIGLKKKAVAFSPVTELKKDTDFEHRMPREQWWLSLRLMLKMLAQYRISMAAYVSGELEHVTRRTLSMDKGF
B3: FKBP8 (protein, UniProt Q14318 1-412, looked up)
Peptidyl-prolyl cis-trans …: MASCAEPSEPSAPLPAGVPPLEDFEVLDGVEDAEGEEEEEEEEEEEDDLSELPPLEDMGQPPAEEAEQPGALAREFLAAMEPEPAPAPAPEEWLDILGNGLLRKKTLVPGPPGSSRPVKGQVVTVHLQTSLENGTRVQEEPELVFTLGDCDVIQALDLSVPLMDVGETAMVTADSKYCYGPQGRSPYIPPHAALCLEVTLKTAVDGPDLEMLTGQERVALANRKRECGNAHYQRADFVLAANSYDLAIKAITSSAKVDMTFEEEAQLLQLKVKCLNNLAASQLKLDHYRAALRSCSLVLEHQPDNIKALFRKGKVLAQQGEYSEAIPILRAALKLEPSNKTIHAELSKLVKKHAAQRSTETALYRKMLGNPSRLPAKCPGKGAWSIPWKWLFGATAVALGGVALSVVIAARN
B4: MOCS1 (protein, UniProt Q9NZB8 1-636, looked up)
Molybdenum cofactor …: MAARPLSRMLRRLLRSSARSCSSGAPVTQPCPGESARAASEEVSRRRQFLREHAAPFSAFLTDSFGRQHSYLRISLTEKCNLRCQYCMPEEGVPLTPKANLLTTEEILTLARLFVKEGIDKIRLTGGEPLIRPDVVDIVAQLQRLEGLRTIGVTTNGINLARLLPQLQKAGLSAINISLDTLVPAKFEFIVRRKGFHKVMEGIHKAIELGYNPVKVNCVVMRGLNEDELLDFAALTEGLPLDVRFIEYMPFDGNKWNFKKMVSYKEMLDTVRQQWPELEKVPEEESSTAKAFKIPGFQGQISFITSMSEHFCGTCNRLRITADGNLKVCLFGNSEVSLRDHLRAGASEQELLRIIGAAVGRKKRQHAGMFSISQMKNRPMILIELFLMFPNSPPANPSIFSWDPLHVQGLRPRMSFSSQVATLWKGCRVPQTPPLAQQRLGSGSFQRHYTSRADSDANSKCLSPGSWASAAPSGPQLTSEQLTHVDSEGRAAMVDVGRKPDTERVAVASAVVLLGPVAFKLVQQNQLKKGDALVVAQLAGVQAAKVTSQLIPLCHHVALSHIQVQLELDSTRHAVKIQASCRARGPTGVEMEALTSAAVAALTLYDMCKAVSRDIVLEEIKLISKTGGQRGDFHRA
B5: FOXRED1 (protein, UniProt Q96CU9 1-486, looked up)
FAD-dependent oxidoreductase …: MIRRVLPHGMGRGLLTRRPGTRRGGFSLDWDGKVSEIKKKIKSILPGRSCDLLQDTSHLPPEHSDVVIVGGGVLGLSVAYWLKKLESRRGAIRVLVVERDHTYSQASTGLSVGGICQQFSLPENIQLSLFSASFLRNINEYLAVVDAPPLDLRFNPSGYLLLASEKDAAAMESNVKVQRQEGAKVSLMSPDQLRNKFPWINTEGVALASYGMEDEGWFDPWCLLQGLRRKVQSLGVLFCQGEVTRFVSSSQRMLTTDDKAVVLKRIHEVHVKMDRSLEYQPVECAIVINAAGAWSAQIAALAGVGEGPPGTLQGTKLPVEPRKRYVYVWHCPQGPGLETPLVADTSGAYFRREGLGSNYLGGRSPTEQEEPDPANLEVDHDFFQDKVWPHLALRVPAFETLKVQSAWAGYYDYNTFDQNGVVGPHPLVVNMYFATGFSGHGLQQAPGIGRAVAEMVLKGRFQTIDLSPFLFTRFYLGEKIQENNII
B6: MAP1S (protein, UniProt Q66K74 1-1059, looked up)
Microtubule-associated …: MAAVAGSGAAAAPSSLLLVVGSEFGSPGLLTYVLEELERGIRSWDVDPGVCNLDEQLKVFVSRHSATFSSIVKGQRSLHHRGDNLETLVLLNPSDKSLYDELRNLLLDPASHKLLVLAGPCLEETGELLLQTGGFSPHHFLQVLKDREIRDILATTPPPVQPPILTITCPTFGDWAQLAPAVPGLQGALRLQLRLNPPAQLPNSEGLCEFLEYVAESLEPPSPFELLEPPTSGGFLRLGRPCCYIFPGGLGDAAFFAVNGFTVLVNGGSNPKSSFWKLVRHLDRVDAVLVTHPGADSLPGLNSLLRRKLAERSEVAAGGGSWDDRLRRLISPNLGVVFFNACEAASRLARGEDEAELALSLLAQLGITPLPLSRGPVPAKPTVLFEKMGVGRLDMYVLHPPSAGAERTLASVCALLVWHPAGPGEKVVRVLFPGCTPPACLLDGLVRLQHLRFLREPVVTPQDLEGPGRAESKESVGSRDSSKREGLLATHPRPGQERPGVARKEPARAEAPRKTEKEAKTPRELKKDPKPSVSRTQPREVRRAASSVPNLKKTNAQAAPKPRKAPSTSHSGFPPVANGPRSPPSLRCGEASPPSAACGSPASQLVATPSLELGPIPAGEEKALELPLAASSIPRPRTPSPESHRSPAEGSERLSLSPLRGGEAGPDASPTVTTPTVTTPSLPAEVGSPHSTEVDESLSVSFEQVLPPSAPTSEAGLSLPLRGPRARRSASPHDVDLCLVSPCEFEHRKAVPMAPAPASPGSSNDSSARSQERAGGLGAEETPPTSVSESLPTLSDSDPVPLAPGAADSDEDTEGFGVPRHDPLPDPLKVPPPLPDPSSICMVDPEMLPPKTARQTENVSRTRKPLARPNSRAAAPKATPVAAAKTKGLAGGDRASRPLSARSEPSEKGGRAPLSRKSSTPKTATRGPSGSASSRPGVSATPPKSPVYLDLAYLPSGSSAHLVDEEFFQRVRALCYVISGQDQRKEEGMRAVLDALLASKQHWDRDLQVTLIPTFDSVAMHTWYAETHARHQALGITVLGSNSMVSMQDDAFPACKVEF
B7: ZFP91 (protein, UniProt Q96JP5 2-570, looked up)
E3 ubiquitin-protein ligase …: PGETEEPRPPEQQDQEGGEAAKAAPEEPQQRPPEAVAAAPAGTTSSRVLRGGRDRGRAAAAAAAAAVSRRRKAEYPRRRRSSPSARPPDVPGQQPQAAKSPSPVQGKKSPRLLCIEKVTTDKDPKEEKEEEDDSALPQEVSIAASRPSRGWRSSRTSVSRHRDTENTRSSRSKTGSLQLICKSEPNTDQLDYDVGEEHQSPGGISSEEEEEEEEEMLISEEEIPFKDDPRDETYKPHLERETPKPRRKSGKVKEEKEKKEIKVEVEVEVKEEENEIREDEEPPRKRGRRRKDDKSPRLPKRRKKPPIQYVRCEMEGCGTVLAHPRYLQHHIKYQHLLKKKYVCPHPSCGRLFRLQKQLLRHAKHHTDQRDYICEYCARAFKSSHNLAVHRMIHTGEKPLQCEICGFTCRQKASLNWHMKKHDADSFYQFSCNICGKKFEKKDSVVAHKAKSHPEVLIAEALAANAGALITSTDILGTNPESLTQPSDGQGLPLLPEPLGNSTSGECLLLEAEGMSKSYCSGTERVSLMADGKIFVGSGSSGGTEGLVMNSDILGATTEVLIEDSDSAGP
B8: TRMT2A (protein, UniProt Q8IZ69 1-625, looked up)
tRNA …: MSENLDNEGPKPMESCGQESSSALSCPTVSVPPAAPAALEEVEKEGAGAATGPGPQPGLYSYIRDDLFTSEIFKLELQNVPRHASFSDVRRFLGRFGLQPHKTKLFGQPPCAFVTFRSAAERDKALRVLHGALWKGRPLSVRLARPKADPMARRRRQEGESEPPVTRVADVVTPLWTVPYAEQLERKQLECEQVLQKLAKEIGSTNRALLPWLLEQRHKHNKACCPLEGVRPSPQQTEYRNKCEFLVGVGVDGEDNTVGCRLGKYKGGTCAVAAPFDTVHIPEATKQVVKAFQEFIRSTPYSAYDPETYTGHWKQLTVRTSRRHQAMAIAYFHPQKLSPEELAELKTSLAQHFTAGPGRASGVTCLYFVEEGQRKTPSQEGLPLEHVAGDRCIHEDLLGLTFRISPHAFFQVNTPAAEVLYTVIQDWAQLDAGSMVLDVCCGTGTIGLALARKVKRVIGVELCPEAVEDARVNAQDNELSNVEFHCGRAEDLVPTLVSRLASQHLVAILDPPRAGLHSKVILAIRRAKNLRRLLYVSCNPRAAMGNFVDLCRAPSNRVKGIPFRPVKAVAVDLFPQTPHCEMLILFERVEHPNGTGVLGPHSPPAQPTPGPPDNTLQETGTFPSS
B9: DNAJC25 (protein, UniProt Q9H1X3 1-360, looked up)
DnaJ homolog subfamily C …: MGAPLLSPGWGAGAAGRRWWMLLAPLLPALLLVRPAGALVEGLYCGTRDCYEVLGVSRSAGKAEIARAYRQLARRYHPDRYRPQPGDEGPGRTPQSAEEAFLLVATAYETLKDEETRKDYDYMLDHPEEYYSHYYHYYSRRLAPKVDVRVVILVSVCAISVFQFFSWWNSYNKAISYLATVPKYRIQATEIAKQQGLLKKAKEKGKNKKSKEEIRDEEENIIKNIIKSKIDIKGGYQKPQICDLLLFQIILAPFHLCSYIVWYCRWIYNFNIKGKEYGEEERLYIIRKSMKMSKSQFDSLEDHQKETFLKRELWIKENYEVYKQEQEEELKKKLANDPRWKRYRRWMKNEGPGRLTFVDD
B10: DHRS13 (protein, UniProt Q6UX07 26-377, looked up)
Dehydrogenase/reductase SDR …: PPCGGMGNLRGRTAVVTGANSGIGKMTALELARRGARVVLACRSQERGEAAAFDLRQESGNNEVIFMALDLASLASVRAFATAFLSSEPRLDILIHNAGISSCGRTREAFNLLLRVNHIGPFLLTHLLLPCLKACAPSRVVVVASAAHCRGRLDFKRLDRPVVGWRQELRAYADTKLANVLFARELANQLEATGVTCYAAHPGPVNSELFLRHVPGWLRPLLRPLAWLVLRAPRGGAQTPLYCALQEGIEPLSGRYFANCHVEEVPPAARDDRAAHRLWEASKRLAGLGPGEDAEPDEDPQSEDSEAPSSLSTPHPEEPTVSQPYPSPQSSPDLSKMTHRIQAKVEPEIQLS

test system: BAF complex subunits and histone proteins; test: Mass spectrometry proteomics of purified HA-SS18 WT and HA-SS18-SSX1 complexes (Tables 5A-5E); set-up: species or system human; details: HA-SS18WT_NE_peptides: proteins co-purified with HA-SS18 WT from nuclear extract (NE), HEK-293T

Total (peptides), 1:
B1
B2
B3
B4
B5
B6
B7
B8
B9
B10

Unique (peptides), 1:
B1
B2
B3
B4
B5
B6
B7
B8
B9
B10
